Assay results reported in US20180369203A1, “METHODS OF TREATING CANCER BY ADMINISTERING A MEK INHIBITOR IN COMBINATION WITH A PROTEASOME INHIBITOR” (The Jackson Laboratory, priority 2015, published 2018).
At least one compound was matched to its structure with a doubt left.

How the values were obtained:
Type in all cases: cell-based
HSF1 = assay: Dual HSF1 reporter assay (HSE-SEAP / CMV-GLuc) in HEK293T cells; settings: 20 μM U0126, 20 nM AZD6244, 1 μM FR180204 or 100 nM Sch772984
Description: (A) NIH3T3 cells were treated with HS at 43° C. for 30 min, 10 μM tubastatin A for 5 hr, 40 μM VER155008 for 1 hr, 500 nM MG132 for 1 hr, 200 nM 17-DMAG for 1 hr, and 2.5 mM azetidine for 15 min (B) The dual ELK1 reporter system, comprising a serum response element (SRE)-driven secreted embryonic alkaline phosphatase (SEAP) plasmid and a CMV-driven Gaussia luciferase (GLuc) plasmid, was transfected into HEK293T cells. After 24 hr, cells were treatments as in (A) and recovered overnight before measuring reporter activities (mean±SD, n=6, ANOVA). (C and D) NIH3T3 cells were treated with 20 μM U0126 or 20 nM AZD6244 for 3 hr followed by HS and 4-hr recovery. mRNA levels were quantitated by qRT-PCR (mean±SD, n=3, Student's t-test). […]
FIGS. 8A-H illustrate that MEK and ERK inversely regulate the PSR. […] Cell viability was measured by a Guava EasyCyte™ flow cytometer using Guava ViaCount™ reagents (mean±SD, n=5, Student's t test). […] Levels of ERK1 and ERK2 mRNAs were quantitated in HEK293T cells transfected with ERK1-targeting siRNAs by qRT-PCR (mean±SD, n=3, ANOVA). […] Levels of ERK2 and ERK1 mRNAs were quantitated in HEK293T cells transfected with ERK2-targeting siRNAs by qRT-PCR (mean±SD, n=3, ANOVA).
Plasmids were transfected with TurboFect transfection reagent (Thermo Scientific). […] Luminescence signals were measured by a VICTORS Multilabel plate reader (PerkinElmer).

polyQ79 = polyQ79 aggregate size in HEK293T cells (Coulter counter); settings: 20 nM AZD6244, 100 nM Bortezomib, or both
Description: FIGS. 5A-Y show MEK and proteasome inhibition provoke protein aggregation and amyloidogenesis. (A-B) WM115 cells treated with 20 nM AZD6244, 100 nM Bortezomib, or both for 24 hr were stained with Lys48-specific ubiquitin antibodies. Arrowheads mark ubiquitin-positive aggregates. Scale bar: 10 μm. Amounts of aggregates per cell were quantitated using ImageJ (median, n≥100, ANOVA). (C-F) Following transfection with polyQ79 plasmids alone or with both polyQ79 and HSF1^S326D plasmids for one day, HEK293T cells were treated with inhibitors as described in (A-B). Cells were either analyzed for aggregate size or stained with 10 μM ThT. (G) Treated tumor cell lines were stained with 10 μM ThT. Geometric means were used to calculate fold changes in ThT fluorescence intensity and the log 2(FC) values were presented as a heat map. (H) HEK293T cells were transfected with LacZ or polyQ79 plasmid. Following treatments, AOs were quantitated by ELISA using A11 antibodies (mean±SD, n=3, ANOVA). (I) Intrinsic AOs were detected in human tumor cell lines (mean±SD, n=3, ANOVA). […] Amyloids were quantitated by ELISA (mean±SD, n=3, Student's t-test). […] AF formation was monitored by ThT binding (mean±SD, n=3, ANOVA). […] Amyloids were quantitated (mean±SD, n=3, Student's t-test). […] Viable cells were quantitated by CellTiter® blue (mean±SD, n=6, Student's t-test). […] Viable cells were quantitated (mean±SD, n=6, ANOVA). […]

[1] = test system: V5-TOR1AIP2, V5-RPL3, V5-RPL15; assay: Levels and ubiquitination of V5-tagged proteins in HEK293T cells; settings: 20 nM AZD6244, 8 hours

In the case of `Cn1cnc2c(F)c(Nc3ccc(Br)cc3Cl)c(C(=O)NOCCO)cc21` [AZD6244, selumetinib], the “transcriptional activation of HSF1” value (HSF1) is reported as “impaired”, the polyQ79 aggregate size (polyQ79) is reported as “enlarged” and the “levels of V5-tagged TOR1AIP2 and RPL3 proteins” value [1] is reported as “did not alter”. The “ubiquitination of V5-tagged TOR1AIP2 and RPL3 proteins” value [1] was “increased”.
